20 compounds from PubChem BioAssay AID192 (DTP/NCI, 2004) can be followed below.

The structures appear in SMILES notation. The list shows only some results of the screen, not a fair sample: it gathers tests that were run many times, whatever their T/C, doses with no T/C, and many T/C values between a quarter and a half above the control. Other doses and runs of a compound stand elsewhere. T/C: endpoint of the treated group in % of that of the vehicle group. Some doses have a count of surviving animals in place of a T/C: the source files T/C as zero there, which appears to mark a toxic dose or a test without result, not a measured value. Some doses without a T/C left all or most animals alive at the check, yet need not have been tolerated: survival well below the control is almost never listed, so the zero probably covers shortened survival too. Survivors were counted at the toxicity check, usually on the fifth day, unless a day is given; later deaths do not show. Schedule codes are those of the source, read here as Q, the interval in days (D) or hours (H), X, the number of doses. Some doses were run more than once; the values are given in rising order. Where survival is the endpoint, this PubChem deposit counts one and a half times the control or more as active, and values a quarter to a half above the control carry no call in these data; other NCI protocols may use other cut-offs.

This experiment concerns BDF1 mice, B16 melanoma ip, median survival T/C. Nature of the experiment: NCI In Vivo Anticancer Drug Screen. Data for tumor model B16 Melanoma (intraperitoneal) in B6D2F1 (BDF1) mice. The following applies: T/C endpoint: median survival time, higher T/C = longer survival. The method, boiled down:
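Each result divides a survival or tumor-size measurement in the compound-treated group by the same measurement in the vehicle group.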

Setting [1] is: dose: 50.0 mg/kg/injection, schedule: Q01DX009 (ip), vehicle: Klucel (hydroxypropylcellulose) (HPC).
The mark [2] stands for this setting: dose: 100.0 mg/kg/injection, schedule: Q01DX009 (ip), vehicle: saline with Tween-80.
[3] abbreviates: dose: 200.0 mg/kg/injection, schedule: Q01DX009 (ip), vehicle: saline with Tween-80.
Setting [4] is: dose: 200.0 mg/kg/injection, schedule: Q01DX009 (ip), vehicle: saline.
Where [5] appears, read: dose: 400.0 mg/kg/injection, schedule: Q01DX009 (ip), vehicle: saline.
Where [6] appears, read: dose: 400.0 mg/kg/injection, schedule: Q01DX009 (ip), vehicle: saline with Tween-80.
[7] abbreviates: dose: 50.0 mg/kg/injection, schedule: Q01DX009 (ip), vehicle: saline with Tween-80.

On to `CC(C)n1c2c([n+](C)c1/C=C/c1ccccc1)C(=O)c1ccccc1C2=O`, for which the survivor count (dose: 1.0 mg/kg/injection, schedule: Q01DX009 (ip), vehicle: saline) was 3 of 10; the survivor count (dose: 2.0 mg/kg/injection, schedule: Q01DX009 (ip), vehicle: saline with Tween-80) is recorded as 9 of 10; the survivor count (dose: 4.0 mg/kg/injection, schedule: Q01DX009 (ip), vehicle: saline with Tween-80) was 6 of 10; the survivor count (dose: 8.0 mg/kg/injection, schedule: Q01DX009 (ip), vehicle: saline with Tween-80) was 0 of 10.
On to `CCC(CC)CC1CN2CCc3cc(OC)c(OC)cc3C2CC1(O)CC` (configuration not stated), for which the survivor count under setting [1] is reported as 2 of 10.
Turning to `CN1CCN(c2ccc([N+](=O)[O-])c3no[n+]([O-])c23)CC1`, the T/C (dose: 2.5 mg/kg/injection, schedule: Q01DX009 (ip), vehicle: saline with Tween-80) was 128 % of control and the T/C (dose: 20.0 mg/kg/injection, schedule: Q01DX011 (ip), vehicle: saline with Tween-80) is 128 % of control. The survivor count runs as follows: (dose: 20.0 mg/kg/injection, schedule: Q01DX009 (ip), vehicle: saline with Tween-80) 10 of 10; (dose: 40.0 mg/kg/injection, schedule: Q01DX009 (ip), vehicle: saline with Tween-80) 10 of 10; (dose: 80.0 mg/kg/injection, schedule: Q01DX009 (ip), vehicle: saline with Tween-80) 3 of 10.
Take `CCc1cccc(CC)c1N1C(=O)C=CC1=O`: the survivor count was 10 of 10 (dose: 3.13 mg/kg/injection, schedule: Q01DX009 (ip), vehicle: saline with Tween-80); 10 of 10 (dose: 6.25 mg/kg/injection, schedule: Q01DX009 (ip), vehicle: saline with Tween-80); 9 of 9 (dose: 12.5 mg/kg/injection, schedule: Q01DX009 (ip), vehicle: saline with Tween-80).
As to `Cc1c2cc(Cl)c3ccccc3c2c[n+]2ccccc12`, the survivor count under setting [2] is reported as 8 of 10.
Consider `CCC/C(=C\C(=O)O)CC`, for which the survivor count (dose: 400.0 mg/kg/injection, schedule: Q04DX003 (ip), vehicle: Klucel (hydroxypropylcellulose) (HPC)) is listed as 10 of 10.
Consider `CC(NC(=O)C(F)(F)F)C(=O)O` (configuration not stated), for which the survivor count (dose: 400.0 mg/kg/injection, schedule: Q04DX003 (ip), vehicle: saline) is on record as 10 of 10.
Turning to `COc1ccc2c(c1OC)C13CCCCC1C(C2)[N+](C)(C)CC3` (configuration not stated), the survivor count was 10 of 10 (dose: 0.09 mg/kg/injection, schedule: Q01DX009 (ip), vehicle: Klucel (hydroxypropylcellulose) (HPC)); 10 of 10 (dose: 0.19 mg/kg/injection, schedule: Q01DX009 (ip), vehicle: Klucel (hydroxypropylcellulose) (HPC)); 10 of 10 (dose: 0.39 mg/kg/injection, schedule: Q01DX009 (ip), vehicle: Klucel (hydroxypropylcellulose) (HPC)); 10 of 10 (dose: 1.56 mg/kg/injection, schedule: Q01DX009 (ip), vehicle: Klucel (hydroxypropylcellulose) (HPC)); 10 of 10 (dose: 6.25 mg/kg/injection, schedule: Q01DX009 (ip), vehicle: Klucel (hydroxypropylcellulose) (HPC)); 10 of 10 (dose: 12.5 mg/kg/injection, schedule: Q01DX009 (ip), vehicle: Klucel (hydroxypropylcellulose) (HPC)). In addition, the survivor count by setting is: (dose: 25.0 mg/kg/injection, schedule: Q01DX009 (ip), vehicle: Klucel (hydroxypropylcellulose) (HPC)) 10 of 10; under setting [1], 9 of 10.
As to `O=C(COc1ccc(Cl)cc1Cl)Nc1ccc(F)cc1`, the survivor count under setting [3] was 10 of 10.
Take `C=CCOCC(O)CN(C)CCCC` (configuration not stated): the survivor count was 10 of 10 (dose: 50.0 mg/kg/injection, schedule: Q04DX003 (ip), vehicle: Klucel (hydroxypropylcellulose) (HPC)); 10 of 10 (dose: 100.0 mg/kg/injection, schedule: Q04DX003 (ip), vehicle: Klucel (hydroxypropylcellulose) (HPC)); 0 of 10 (dose: 200.0 mg/kg/injection, schedule: Q04DX003 (ip), vehicle: Klucel (hydroxypropylcellulose) (HPC)); 2 of 10 (dose: 200.0 mg/kg/injection, schedule: Q04DX003 (ip), vehicle: saline).
With `COc1c(Cl)cc2c(c1OC)N(C)C1N3C(=O)C4(C)SSC3(C(=O)N4C)C(O)C21O` (configuration not stated), the T/C (dose: 0.5 mg/kg/injection, schedule: Q01DX009 (ip), vehicle: Klucel (hydroxypropylcellulose) (HPC)) was 131 % of control. Besides, the survivor count (dose: 1.0 mg/kg/injection, schedule: Q01DX009 (ip), vehicle: Klucel (hydroxypropylcellulose) (HPC)) was 10 of 10.
Regarding `COc1cc(CN(C)C2CCCCC2)cc(OC)c1OC`, the survivor count runs as follows: under setting [4], 0 of 10; under setting [5], 0 of 10.
In the case of `O=C(O)C1CC[N-]CC1.O=C(O)C1CC[N-]CC1.O=C(O)C1CC[N-]CC1.O=C(O)C1CC[N-]CC1.[Cl][Rh][Cl]`, the survivor count runs as follows: under setting [2], 10 of 10; under setting [3], 10 of 10; under setting [6], 9 of 10.
As for `C[CH2][Ge]([CH2]C)[CH2]C.C[CH2][Ge]([CH2]C)[CH2]C.C[CH2][Ge]([CH2]C)[O][Ge]([CH2]C)[CH2]C`, the survivor count is, setting by setting: (dose: 25.0 mg/kg/injection, schedule: Q01DX009 (ip), vehicle: saline with Tween-80) 10 of 10; under setting [7], 10 of 10; under setting [2], 10 of 10; under setting [3], 0 of 10 and 8 of 10; under setting [6], 0 of 10.
As to `CCCCOC(=O)C(C)OC(=O)CCC` (configuration not stated), the T/C reads like this: (dose: 100.0 mg/kg/injection, schedule: Q01DX009 (ip), vehicle: Klucel (hydroxypropylcellulose) (HPC)) 143 % of control; (dose: 400.0 mg/kg/injection, schedule: Q01DX009 (ip), vehicle: Klucel (hydroxypropylcellulose) (HPC)) 132 % of control.
As to `NC1=NC(=O)N2CC12` (configuration not stated), the survivor count runs as follows: under setting [4], 8 of 10; under setting [5], 3 of 10.
As to `CCC(C)C1NC(=O)C(NC(=O)c2c3nc4c(C(=O)NC5C(=O)NC(C(C)CC)C(=O)N6CCCC6C(=O)N(C)CC(=O)N(C)C(C(C)C)C(=O)OC5C)cc(N)c(C)c4oc-3c(C)c(=O)c2N)C(C)OC(=O)C(C(C)C)N(C)C(=O)CN(C)C(=O)C2CCCN2C1=O` (configuration not stated), the T/C reads like this: (dose: 50.0 micrograms/kg/injection, schedule: Q01DX009 (ip), vehicle: water) 125 % of control; (dose: 100.0 micrograms/kg/injection, schedule: Q01DX009 (ip), vehicle: water) 132 % of control; (dose: 200.0 micrograms/kg/injection, schedule: Q01DX009 (ip), vehicle: water) 145 % of control. The survivor count by setting is: (dose: 178.0 micrograms/kg/injection, schedule: Q01DX009 (ip), vehicle: water) 10 of 10; (dose: 266.0 micrograms/kg/injection, schedule: Q01DX009 (ip), vehicle: water) 10 of 10; (dose: 400.0 micrograms/kg/injection, schedule: Q01DX009 (ip), vehicle: water) 10 of 10; (dose: 600.0 micrograms/kg/injection, schedule: Q01DX009 (ip), vehicle: water) 10 of 10.
In the case of `CS(=O)(=O)c1cnc2ccccc2n1`, the survivor count is, setting by setting: under setting [2], 10 of 10; under setting [3], 8 of 10; under setting [6], 5 of 10.
On to `CCCCCCCCCCCCCCCC(=O)N(C/C=C/CN(CCCN(C)C)C(=O)CCCCCCCCCCCCCCC)CCCN(C)C`, for which the survivor count is, setting by setting: (dose: 0.39 mg/kg/injection, schedule: Q01DX009 (ip), vehicle: saline) 10 of 10; (dose: 0.78 mg/kg/injection, schedule: Q01DX009 (ip), vehicle: saline) 10 of 10; (dose: 1.56 mg/kg/injection, schedule: Q01DX009 (ip), vehicle: saline with Tween-80) 10 of 10; under setting [7], 4 of 10.
In the case of `CN(C)CCCn1c2c(c3ccccc31)CCCCCC2`, the survivor count reads like this: (dose: 100.0 mg/kg/injection, schedule: Q01DX009 (ip), vehicle: saline) 2 of 10; under setting [4], 1 of 10; under setting [5], 0 of 10.
